Reference: the supplement of paper PMC10373366
Structures can show the parent of a compound that is named as a salt. The list shows a part of the results. Single values are uncertain, as repeats are few or missing.

System: patient-derived ovarian cancer cells (PDC)
Test: cell growth inhibition ratio vs untreated control (CCK8); higher = stronger inhibition of cell viability
Conditions: 10 µM; 48 h
Experimental: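 Natural product library (Topscience) screened at 10 µM final concentration for 48 h on ovarian cancer A2780 cells and patient-derived ovarian cancer cells (PDC) in 96-well plates; viability read by CCK8 and reported as inhibition ratio (%) relative to untreated control. Single-dose primary screen.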

SMILES | cell growth inhibition ratio
CN(C)[C@@H]1C(=O)C(C(N)=O)=C(O)[C@@]2(O)C(=O)C3=C(O)c4c(O)ccc(Cl)c4[C@@](C)(O)[C@H]3C[C@@H]12 [Chlortetracycline hydrochloride] | 0.892%
COc1ccc2c(c1)[nH]c1c(C)nccc12 [Harmine] | 39.3%
N#C/C=C1/C=C[C@@H](O)[C@H](O)[C@H]1O[C@@H]1O[C@H](CO)[C@@H](O)[C@H](O)[C@H]1O [Griffonin] | -21.9%
COc1cc(C2OCC3C(c4cc(OC)c(O[C@@H]5O[C@H](CO)[C@@H](O)[C@H](O)[C@H]5O)c(OC)c4)OCC23)cc(OC)c1O[C@H]1O[C@@H](CO)[C@H](O)[C@@H](O)[C@@H]1O (stereo not given in full) [Eleutheroside E] | -14%
N#CCCN [3-Aminopropionitrile fumarate] | -11.3%
C[C@@]12C(=O)OC(=O)[C@]1(C)[C@H]1CC[C@@H]2O1 [Cantharidin] | 75.4%
C=C(C)[C@H]1Cc2c(ccc3c2O[C@@H]2COc4cc(OC)c(OC)cc4[C@@H]2C3=O)O1 [Rotenone] | 51.7%
CC(=O)OCC1=C(C(=O)O)N2C(=O)[C@@H](N)[C@H]2SC1 [7-Aminocephalosporanic acid] | -0.129%
COc1cc([C@@H]2c3cc4c(cc3[C@@H](O)[C@H]3COC(=O)[C@H]23)OCO4)cc(OC)c1O [4'-Demethylepipodophyllotoxin] | 42%
COc1cc2c(c(OC)c1OC)-c1ccc(OC)c(=O)cc1[C@@H](NC(C)=O)CC2 [Colchicine] | 46.4%
CN(C)CCc1ccc(O)cc1 [Hordenine] | 10.1%
c1cc2c(cc1[C@H]1OC[C@H]3[C@@H]1CO[C@@H]3c1ccc3c(c1)OCO3)OCO2 [Sesamin] | -14.6%
C[C@]12CCC(=O)C=C1CC[C@@H]1[C@@H]2CC[C@@]2(C)[C@H]1CC[C@]2(C)O [17-Methyltestosterone] | 6.21%
CN(CC(=O)O)C(=N)NP(=O)(O)O [Creatine phosphate disodium salt] | 7.46%
C=CCCCCCCCCC(=O)O[C@H]1CC[C@H]2[C@@H]3CCC4=CC(=O)C=C[C@]4(C)[C@H]3CC[C@]12C [Boldenone Undecylenate] | 6.22%
C[C@@H]1C[C@@H]([C@H](O)CC2CC(=O)NC(=O)C2)C(=O)[C@@H](C)C1 [Actidione] | 62.9%
CC[C@H]1CN2CC[C@H]1C[C@@H]2[C@@H](O)c1ccnc2ccc(OC)cc12 [Hydroquinidine] | -5.47%
CC(=O)OC12COC1CC(O)C1(C)C(=O)C(O)C3=C(C)C(O)CC(O)(C(OC(=O)c4ccccc4)C21)C3(C)C (stereo not given) [10-Deacetylbaccatin III] | 28.1%
CC1=C(O)C(=O)C=C2C1=CC=C1[C@@]2(C)CC[C@@]2(C)[C@@H]3C[C@](C)(C(=O)O)CC[C@]3(C)CC[C@]12C [Celastrol] | -14.5%
CC[C@H](C)[C@H]1O[C@]2(C=C[C@@H]1C)C[C@@H]1C[C@@H](C/C=C(\C)[C@@H](O[C@H]3C[C@H](OC)[C@@H](O[C@H]4C[C@H](OC)[C@@H](O)[C@H](C)O4)[C@H](C)O3)[C@@H](C)/C=C/C=C3\CO[C@@H]4[C@H](O)C(C)=C[C@@H](C(=O)O1)[C@]34O)O2.CO[C@H]1C[C@H](O[C@H]2[C@H](C)O[C@@H](O[C@@H]3/C(C)=C/C[C@@H]4C[C@@H](C[C@]5(C=C[C@H](C)[C@@H](C(C)C)O5)O4)OC(=O)[C@@H]4C=C(C)[C@@H](O)[C@H]5OC/C(=C\C=C\[C@@H]3C)[C@]54O)C[C@@H]2OC)O[C@@H](C)[C@@H]1O [Abamectin] | -4.45%
C[C@H]1O[C@H](O[C@H]2[C@H](O)[C@@H](O)[C@@H](O)[C@H](O)[C@@H]2O)[C@@H](N)C[C@@H]1NC(=N)C(=O)O [Kasugamycin hydrochloride] | 5.38%
CC(C)[C@]12O[C@H]1[C@@H]1O[C@]13[C@]1(O[C@H]1C[C@H]1C4=C(CC[C@@]13C)C(=O)OC4)[C@@H]2O [Triptolide (PG490)] | 87.3%
C#C[C@]1(O)CC[C@H]2[C@@H]3CCC4=CC(=O)CC[C@]4(C)[C@H]3CC[C@@]21C [Ethisterone] | 2.43%
CC[C@@]1([C@@H]2O[C@@H]([C@H]3O[C@@](O)(CO)[C@H](C)C[C@@H]3C)C[C@@H]2C)CC[C@H]([C@]2(C)CC[C@]3(C[C@H](O)[C@@H](C)[C@@H]([C@@H](C)[C@@H](OC)[C@H](C)C(=O)O)O3)O2)O1 [Monensin sodium salt] | -10.5%
Cc1c([C@H](C)[C@@H]2NC[C@@H](C)C[C@H]2O)ccc2c1C[C@H]1[C@H]2CC=C2C[C@@H](O)CC[C@@]21C [Veratramine] | 18.5%

A different layout for some results above:

| SMILES | cell growth inhibition ratio |
| --- | --- |
| CN(C)[C@@H]1C(=O)C(C(N)=O)=C(O)[C@@]2(O)C(=O)C3=C(O)c4c(O)ccc(Cl)c4[C@@](C)(O)[C@H]3C[C@@H]12 [Chlortetracycline hydrochloride] | 0.892% |
| C=C(C)[C@H]1Cc2c(ccc3c2O[C@@H]2COc4cc(OC)c(OC)cc4[C@@H]2C3=O)O1 [Rotenone] | 51.7% |
| COc1cc2c(c(OC)c1OC)-c1ccc(OC)c(=O)cc1[C@@H](NC(C)=O)CC2 [Colchicine] | 46.4% |
| CC1=C(O)C(=O)C=C2C1=CC=C1[C@@]2(C)CC[C@@]2(C)[C@@H]3C[C@](C)(C(=O)O)CC[C@]3(C)CC[C@]12C [Celastrol] | -14.5% |
| C#C[C@]1(O)CC[C@H]2[C@@H]3CCC4=CC(=O)CC[C@]4(C)[C@H]3CC[C@@]21C [Ethisterone] | 2.43% |
| Cc1c([C@H](C)[C@@H]2NC[C@@H](C)C[C@H]2O)ccc2c1C[C@H]1[C@H]2CC=C2C[C@@H](O)CC[C@@]21C [Veratramine] | 18.5% |
